# The list shows a part of the results. The calls rarely recur for the same compound in another form.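 In K562 cells expressing nanoluciferase-fused kinases, luminescence was recorded at 4 h intervals between 2 and 18 h, normalized as percent of control with DMSO at 100% and a positive control at 0%. A significant (2 sigma) signal drop marks a time point as decreased. The authors' rule for a hit is not shown and takes in more than the number of time points.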
# Protein sequences, listed by entry. Tags and fused reporters are not part of them. Lines headed by an entry give the natural chain unless they say otherwise; changes in a name come on top.
# UniProt P00519, whole entry: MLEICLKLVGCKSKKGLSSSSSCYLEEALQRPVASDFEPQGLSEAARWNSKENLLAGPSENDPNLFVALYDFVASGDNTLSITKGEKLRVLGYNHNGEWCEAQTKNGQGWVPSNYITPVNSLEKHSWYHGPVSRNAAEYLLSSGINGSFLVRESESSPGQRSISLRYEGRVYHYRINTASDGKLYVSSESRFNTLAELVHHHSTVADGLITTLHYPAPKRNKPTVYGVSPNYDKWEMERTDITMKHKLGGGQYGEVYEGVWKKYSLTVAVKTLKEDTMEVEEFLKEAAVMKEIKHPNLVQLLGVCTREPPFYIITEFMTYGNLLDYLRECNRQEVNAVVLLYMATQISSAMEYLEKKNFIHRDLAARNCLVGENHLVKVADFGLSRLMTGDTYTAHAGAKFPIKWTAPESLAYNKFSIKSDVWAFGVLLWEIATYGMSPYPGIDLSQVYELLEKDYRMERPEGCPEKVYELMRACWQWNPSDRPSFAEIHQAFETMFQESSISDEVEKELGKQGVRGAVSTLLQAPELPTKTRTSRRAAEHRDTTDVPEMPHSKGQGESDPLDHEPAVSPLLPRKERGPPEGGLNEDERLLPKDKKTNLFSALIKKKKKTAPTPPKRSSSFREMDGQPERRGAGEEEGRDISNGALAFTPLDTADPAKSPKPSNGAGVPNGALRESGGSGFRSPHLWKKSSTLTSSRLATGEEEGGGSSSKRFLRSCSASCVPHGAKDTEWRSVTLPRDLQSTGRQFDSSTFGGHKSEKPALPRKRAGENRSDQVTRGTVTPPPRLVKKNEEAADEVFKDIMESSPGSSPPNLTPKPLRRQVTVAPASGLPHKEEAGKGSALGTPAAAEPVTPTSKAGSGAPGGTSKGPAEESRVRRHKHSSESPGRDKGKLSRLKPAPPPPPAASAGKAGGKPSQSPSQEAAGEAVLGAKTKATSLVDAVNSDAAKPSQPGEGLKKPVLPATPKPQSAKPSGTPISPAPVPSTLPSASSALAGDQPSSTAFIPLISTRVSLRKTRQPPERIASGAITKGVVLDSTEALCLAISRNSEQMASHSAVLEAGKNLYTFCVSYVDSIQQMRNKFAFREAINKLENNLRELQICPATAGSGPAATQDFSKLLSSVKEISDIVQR
# UniProt P31749: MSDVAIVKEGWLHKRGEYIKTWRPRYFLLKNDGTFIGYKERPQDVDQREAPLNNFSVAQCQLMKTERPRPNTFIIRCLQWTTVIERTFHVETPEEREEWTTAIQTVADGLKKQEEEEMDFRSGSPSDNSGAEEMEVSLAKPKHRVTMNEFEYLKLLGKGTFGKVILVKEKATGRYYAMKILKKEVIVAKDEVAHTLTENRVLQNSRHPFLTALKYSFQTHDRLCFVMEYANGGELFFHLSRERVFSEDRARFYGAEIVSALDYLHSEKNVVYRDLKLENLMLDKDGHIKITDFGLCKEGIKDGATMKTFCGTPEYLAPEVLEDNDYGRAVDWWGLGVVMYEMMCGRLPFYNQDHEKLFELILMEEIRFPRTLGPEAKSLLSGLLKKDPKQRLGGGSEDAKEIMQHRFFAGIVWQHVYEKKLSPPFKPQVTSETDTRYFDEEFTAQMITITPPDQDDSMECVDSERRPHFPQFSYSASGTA
# UniProt Q9UQB9: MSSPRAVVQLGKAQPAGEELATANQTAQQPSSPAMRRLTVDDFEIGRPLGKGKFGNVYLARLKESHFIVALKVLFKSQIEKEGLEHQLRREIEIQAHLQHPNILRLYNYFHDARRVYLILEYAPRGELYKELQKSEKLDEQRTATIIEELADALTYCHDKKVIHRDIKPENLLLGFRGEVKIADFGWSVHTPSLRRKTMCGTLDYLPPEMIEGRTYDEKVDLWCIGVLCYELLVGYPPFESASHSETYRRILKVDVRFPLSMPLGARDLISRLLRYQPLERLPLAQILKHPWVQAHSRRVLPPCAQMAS
# UniProt P51451: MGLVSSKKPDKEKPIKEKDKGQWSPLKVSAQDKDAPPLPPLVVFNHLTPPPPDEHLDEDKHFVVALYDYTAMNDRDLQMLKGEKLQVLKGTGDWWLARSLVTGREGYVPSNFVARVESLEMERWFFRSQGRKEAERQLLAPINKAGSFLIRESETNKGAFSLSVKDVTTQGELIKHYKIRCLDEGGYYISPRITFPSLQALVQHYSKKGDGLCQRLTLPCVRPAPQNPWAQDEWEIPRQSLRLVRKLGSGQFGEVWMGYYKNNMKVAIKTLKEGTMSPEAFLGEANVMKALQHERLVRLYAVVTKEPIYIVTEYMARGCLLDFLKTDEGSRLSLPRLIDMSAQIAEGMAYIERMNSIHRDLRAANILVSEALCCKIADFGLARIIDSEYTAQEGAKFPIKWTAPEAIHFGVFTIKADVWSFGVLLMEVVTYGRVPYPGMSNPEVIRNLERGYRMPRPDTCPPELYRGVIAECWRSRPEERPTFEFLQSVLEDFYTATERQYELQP
# UniProt P51813: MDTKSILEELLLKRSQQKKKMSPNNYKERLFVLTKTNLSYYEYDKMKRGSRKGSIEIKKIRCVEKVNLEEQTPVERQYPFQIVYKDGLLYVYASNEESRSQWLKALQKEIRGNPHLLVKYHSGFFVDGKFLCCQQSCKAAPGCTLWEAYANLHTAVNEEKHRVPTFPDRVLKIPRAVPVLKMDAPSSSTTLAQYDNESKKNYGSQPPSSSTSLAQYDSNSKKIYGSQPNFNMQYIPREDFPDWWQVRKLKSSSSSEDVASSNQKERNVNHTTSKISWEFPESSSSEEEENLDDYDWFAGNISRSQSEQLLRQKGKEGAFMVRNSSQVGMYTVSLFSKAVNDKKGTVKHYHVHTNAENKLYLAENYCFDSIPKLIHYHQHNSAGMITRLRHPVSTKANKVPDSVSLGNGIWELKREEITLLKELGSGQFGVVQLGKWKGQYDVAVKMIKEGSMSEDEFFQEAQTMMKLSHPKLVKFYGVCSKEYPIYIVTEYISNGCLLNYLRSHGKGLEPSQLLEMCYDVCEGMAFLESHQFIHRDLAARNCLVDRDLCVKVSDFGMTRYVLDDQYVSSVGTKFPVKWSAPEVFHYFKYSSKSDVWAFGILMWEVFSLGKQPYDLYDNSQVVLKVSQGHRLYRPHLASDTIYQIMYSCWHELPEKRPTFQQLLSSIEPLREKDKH
# UniProt P15056, whole entry, looked up: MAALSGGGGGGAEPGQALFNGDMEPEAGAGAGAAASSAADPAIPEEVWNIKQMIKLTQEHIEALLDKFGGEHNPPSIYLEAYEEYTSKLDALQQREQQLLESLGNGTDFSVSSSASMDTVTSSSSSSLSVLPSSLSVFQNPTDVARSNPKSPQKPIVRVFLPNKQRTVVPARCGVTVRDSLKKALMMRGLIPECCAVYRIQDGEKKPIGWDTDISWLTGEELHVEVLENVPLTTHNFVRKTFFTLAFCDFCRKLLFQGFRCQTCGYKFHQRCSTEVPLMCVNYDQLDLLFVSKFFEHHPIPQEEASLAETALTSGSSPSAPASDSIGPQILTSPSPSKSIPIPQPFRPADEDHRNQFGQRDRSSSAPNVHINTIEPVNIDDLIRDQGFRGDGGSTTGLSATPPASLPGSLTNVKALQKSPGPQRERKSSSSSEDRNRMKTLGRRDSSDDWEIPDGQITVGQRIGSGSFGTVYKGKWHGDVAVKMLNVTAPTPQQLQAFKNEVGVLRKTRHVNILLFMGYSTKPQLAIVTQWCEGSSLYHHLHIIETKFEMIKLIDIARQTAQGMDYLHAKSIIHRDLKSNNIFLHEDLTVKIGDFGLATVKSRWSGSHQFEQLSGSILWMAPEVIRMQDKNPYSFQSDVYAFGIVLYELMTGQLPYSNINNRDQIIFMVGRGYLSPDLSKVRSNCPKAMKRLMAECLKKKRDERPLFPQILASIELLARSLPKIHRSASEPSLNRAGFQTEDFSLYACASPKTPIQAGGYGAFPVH
# UniProt Q06187: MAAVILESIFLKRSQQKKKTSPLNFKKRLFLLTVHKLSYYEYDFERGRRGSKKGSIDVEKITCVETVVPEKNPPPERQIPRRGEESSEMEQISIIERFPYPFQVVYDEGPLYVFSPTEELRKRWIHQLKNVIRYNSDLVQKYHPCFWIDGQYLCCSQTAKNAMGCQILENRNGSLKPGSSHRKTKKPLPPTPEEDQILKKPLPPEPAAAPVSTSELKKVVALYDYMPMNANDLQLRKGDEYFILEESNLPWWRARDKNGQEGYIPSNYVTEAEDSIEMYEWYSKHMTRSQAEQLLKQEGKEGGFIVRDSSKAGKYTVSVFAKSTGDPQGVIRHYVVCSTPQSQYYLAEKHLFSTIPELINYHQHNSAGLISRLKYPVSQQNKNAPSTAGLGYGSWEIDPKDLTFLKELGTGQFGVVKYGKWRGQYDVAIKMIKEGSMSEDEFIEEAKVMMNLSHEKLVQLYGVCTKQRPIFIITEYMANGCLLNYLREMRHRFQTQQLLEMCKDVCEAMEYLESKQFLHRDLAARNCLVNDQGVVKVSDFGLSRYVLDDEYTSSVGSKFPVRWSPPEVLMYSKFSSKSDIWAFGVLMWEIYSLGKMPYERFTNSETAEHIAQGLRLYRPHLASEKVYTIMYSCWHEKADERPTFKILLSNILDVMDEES
# UniProt Q9UQM7, whole entry: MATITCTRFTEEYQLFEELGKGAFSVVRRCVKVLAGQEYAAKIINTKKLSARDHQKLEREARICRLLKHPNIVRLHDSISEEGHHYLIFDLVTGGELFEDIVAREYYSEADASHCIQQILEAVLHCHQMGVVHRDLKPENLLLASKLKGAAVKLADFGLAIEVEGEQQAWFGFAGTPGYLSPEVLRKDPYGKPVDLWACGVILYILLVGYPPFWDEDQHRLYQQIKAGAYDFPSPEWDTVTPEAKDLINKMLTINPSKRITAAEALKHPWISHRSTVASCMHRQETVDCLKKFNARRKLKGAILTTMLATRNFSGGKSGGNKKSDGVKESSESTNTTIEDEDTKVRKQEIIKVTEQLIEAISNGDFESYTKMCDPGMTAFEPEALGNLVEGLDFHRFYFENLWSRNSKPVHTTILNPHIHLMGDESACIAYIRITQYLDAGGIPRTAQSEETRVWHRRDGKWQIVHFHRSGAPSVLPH
# UniProt Q13555: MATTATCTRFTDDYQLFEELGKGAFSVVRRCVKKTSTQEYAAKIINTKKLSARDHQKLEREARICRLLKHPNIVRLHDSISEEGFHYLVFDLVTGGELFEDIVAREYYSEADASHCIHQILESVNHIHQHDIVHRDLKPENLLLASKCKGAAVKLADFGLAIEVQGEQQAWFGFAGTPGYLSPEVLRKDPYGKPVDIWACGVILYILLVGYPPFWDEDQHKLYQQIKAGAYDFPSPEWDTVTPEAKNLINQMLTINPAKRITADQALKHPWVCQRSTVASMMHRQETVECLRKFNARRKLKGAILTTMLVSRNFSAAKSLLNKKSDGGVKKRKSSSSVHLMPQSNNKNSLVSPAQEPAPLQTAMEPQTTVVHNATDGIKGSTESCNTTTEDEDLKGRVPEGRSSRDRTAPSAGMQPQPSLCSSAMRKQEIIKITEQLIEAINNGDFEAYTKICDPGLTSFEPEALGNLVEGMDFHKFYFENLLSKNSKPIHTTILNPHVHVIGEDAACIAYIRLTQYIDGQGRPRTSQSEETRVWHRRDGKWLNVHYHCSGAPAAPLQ
# UniProt Q15131: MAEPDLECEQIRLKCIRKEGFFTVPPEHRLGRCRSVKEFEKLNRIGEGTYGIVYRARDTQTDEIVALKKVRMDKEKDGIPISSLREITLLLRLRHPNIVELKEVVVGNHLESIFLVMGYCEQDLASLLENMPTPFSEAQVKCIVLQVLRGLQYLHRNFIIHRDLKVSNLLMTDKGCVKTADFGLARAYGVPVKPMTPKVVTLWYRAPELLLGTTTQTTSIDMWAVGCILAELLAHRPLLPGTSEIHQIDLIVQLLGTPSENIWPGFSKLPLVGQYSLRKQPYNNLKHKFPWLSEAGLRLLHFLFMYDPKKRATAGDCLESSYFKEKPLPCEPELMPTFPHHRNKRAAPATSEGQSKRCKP
# UniProt Q00526: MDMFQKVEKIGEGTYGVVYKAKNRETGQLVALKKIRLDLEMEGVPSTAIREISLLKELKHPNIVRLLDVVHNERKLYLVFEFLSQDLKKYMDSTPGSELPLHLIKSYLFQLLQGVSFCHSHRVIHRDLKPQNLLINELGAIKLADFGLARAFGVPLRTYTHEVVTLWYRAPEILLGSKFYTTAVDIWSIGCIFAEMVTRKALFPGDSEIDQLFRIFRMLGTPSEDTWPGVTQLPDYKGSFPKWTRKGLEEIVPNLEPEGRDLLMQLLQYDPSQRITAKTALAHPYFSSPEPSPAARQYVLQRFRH
# UniProt Q00535, whole entry, looked up: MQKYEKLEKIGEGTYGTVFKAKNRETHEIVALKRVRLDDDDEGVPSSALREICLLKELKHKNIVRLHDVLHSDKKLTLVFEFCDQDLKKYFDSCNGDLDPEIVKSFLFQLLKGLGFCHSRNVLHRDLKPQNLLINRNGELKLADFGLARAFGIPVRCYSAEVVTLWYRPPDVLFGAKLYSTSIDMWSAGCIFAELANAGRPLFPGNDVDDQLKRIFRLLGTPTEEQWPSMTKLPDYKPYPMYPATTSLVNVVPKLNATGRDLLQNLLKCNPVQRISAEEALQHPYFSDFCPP
# Experiments:
# Assay in all cases: kinase-Nluc reporter destabilization hit call (1 = scored as downregulated) (binary); higher = compound decreases kinase abundance
# Settings in all cases: K562; 2-18 h
# ABL1 = ABL1 (UniProt P00519)
# AKT1 = AKT1 (UniProt P31749)
# ALK = ALK (UniProt Q9UM73)
# ARAF = ARAF (UniProt P10398)
# AURKA = AURKA (UniProt O14965)
# AURKB = AURKB (UniProt Q96GD4)
# AURKC = AURKC (UniProt Q9UQB9)
# BLK = BLK (UniProt P51451)
# BMX = BMX (UniProt P51813)
# BRAF = BRAF (UniProt P15056)
# BRAF_V600E = system: BRAF_V600E
# BTK = BTK (UniProt Q06187)
# CAMK2A = CAMK2A (UniProt Q9UQM7)
# CAMK2G = CAMK2G (UniProt Q13555)
# CDK10 = CDK10 (UniProt Q15131)
# CDK2 = CDK2 (UniProt P24941)
# CDK3 = CDK3 (UniProt Q00526)
# CDK4 = CDK4 (UniProt P11802)
# CDK5 = CDK5 (UniProt Q00535)
# CDK6 = CDK6 (UniProt Q00534)
Structure (SMILES),kinase-Nluc reporter destabilization hit call (ABL1),kinase-Nluc reporter destabilization hit call (AKT1),kinase-Nluc reporter destabilization hit call (ALK),kinase-Nluc reporter destabilization hit call (ARAF),kinase-Nluc reporter destabilization hit call (AURKA),kinase-Nluc reporter destabilization hit call (AURKB),kinase-Nluc reporter destabilization hit call (AURKC),kinase-Nluc reporter destabilization hit call (BLK),kinase-Nluc reporter destabilization hit call (BMX),kinase-Nluc reporter destabilization hit call (BRAF),kinase-Nluc reporter destabilization hit call (BRAF_V600E),kinase-Nluc reporter destabilization hit call (BTK),kinase-Nluc reporter destabilization hit call (CAMK2A),kinase-Nluc reporter destabilization hit call (CAMK2G),kinase-Nluc reporter destabilization hit call (CDK10),kinase-Nluc reporter destabilization hit call (CDK2),kinase-Nluc reporter destabilization hit call (CDK3),kinase-Nluc reporter destabilization hit call (CDK4),kinase-Nluc reporter destabilization hit call (CDK5),kinase-Nluc reporter destabilization hit call (CDK6)
CNC(=O)c1c(C)oc2cc(Oc3ncnc4cc(OC)c(OC)cc34)ccc12 [Fruquintinib] (10 µM),inactive: 0,inactive: 0,inactive: 0,inactive: 0,inactive: 0,inactive: 0,inactive: 0,inactive: 0,inactive: 0,inactive: 0,inactive: 0,inactive: 0,inactive: 0,inactive: 0,inactive: 0,inactive: 0,inactive: 0,inactive: 0,inactive: 0,inactive: 0
O=S(=O)(c1cccc2c(Cl)cccc12)N1CCCNCC1 (10 µM),inactive: 0,inactive: 0,inactive: 0,inactive: 0,inactive: 0,inactive: 0,inactive: 0,inactive: 0,inactive: 0,inactive: 0,inactive: 0,inactive: 0,inactive: 0,inactive: 0,inactive: 0,inactive: 0,inactive: 0,inactive: 0,inactive: 0,inactive: 0
Cc1ccc(Nc2c(C(N)=O)cnc3cc(-c4ccncc4)ccc23)cc1C [cFMS Receptor Inhibitor II] (10 µM),inactive: 0,inactive: 0,inactive: 0,inactive: 0,inactive: 0,inactive: 0,inactive: 0,inactive: 0,inactive: 0,inactive: 0,inactive: 0,inactive: 0,inactive: 0,inactive: 0,inactive: 0,inactive: 0,inactive: 0,inactive: 0,inactive: 0,inactive: 0
CNC(=O)Nc1cc(Oc2cncc(C)c2)c(-c2ccc(OCC(C)(C)O)nc2)cn1 (2.5 µM),active: 1,inactive: 0,inactive: 0,inactive: 0,inactive: 0,inactive: 0,inactive: 0,inactive: 0,inactive: 0,inactive: 0,inactive: 0,inactive: 0,inactive: 0,inactive: 0,inactive: 0,inactive: 0,inactive: 0,inactive: 0,inactive: 0,inactive: 0
CN(C)CCCn1cc(C2=C(c3c[nH]c4ccccc34)C(=O)NC2=O)c2ccccc21 [Bisindolylmaleimide I] (2.5 µM),inactive: 0,inactive: 0,inactive: 0,inactive: 0,inactive: 0,inactive: 0,inactive: 0,inactive: 0,inactive: 0,inactive: 0,inactive: 0,inactive: 0,inactive: 0,inactive: 0,inactive: 0,inactive: 0,inactive: 0,inactive: 0,inactive: 0,inactive: 0
O=C1c2c(O)cc(O)cc2O[C@H](c2cc(O)c(O)c(O)c2)[C@H]1O [Dihydromyricetin] (10 µM),inactive: 0,inactive: 0,inactive: 0,inactive: 0,inactive: 0,inactive: 0,inactive: 0,inactive: 0,inactive: 0,inactive: 0,inactive: 0,inactive: 0,inactive: 0,inactive: 0,inactive: 0,inactive: 0,inactive: 0,inactive: 0,inactive: 0,inactive: 0
C=CC(=O)N1CCN(c2nc(OC[C@@H]3CCCN3C)nc3c2CCN(c2cccc4cccc(C)c24)C3)C[C@@H]1CC#N (2.5 µM),inactive: 0,inactive: 0,inactive: 0,inactive: 0,inactive: 0,inactive: 0,inactive: 0,inactive: 0,inactive: 0,inactive: 0,inactive: 0,inactive: 0,inactive: 0,inactive: 0,inactive: 0,inactive: 0,inactive: 0,inactive: 0,inactive: 0,inactive: 0
Cn1sc(=O)n(Cc2ccccc2)c1=O (10 µM),inactive: 0,inactive: 0,inactive: 0,inactive: 0,inactive: 0,inactive: 0,inactive: 0,inactive: 0,inactive: 0,inactive: 0,inactive: 0,inactive: 0,inactive: 0,inactive: 0,inactive: 0,inactive: 0,inactive: 0,inactive: 0,inactive: 0,inactive: 0
O=C1C(=Cc2ccc(O)c(O)c2)Oc2ccccc21 (2.5 µM),inactive: 0,inactive: 0,inactive: 0,inactive: 0,inactive: 0,inactive: 0,inactive: 0,inactive: 0,inactive: 0,inactive: 0,inactive: 0,inactive: 0,inactive: 0,inactive: 0,inactive: 0,inactive: 0,inactive: 0,inactive: 0,inactive: 0,inactive: 0
O=C1NCCSc2c1sc1ccc(O)cc21 (2.5 µM),inactive: 0,inactive: 0,inactive: 0,inactive: 0,inactive: 0,inactive: 0,inactive: 0,inactive: 0,inactive: 0,inactive: 0,inactive: 0,inactive: 0,inactive: 0,inactive: 0,inactive: 0,inactive: 0,inactive: 0,inactive: 0,inactive: 0,inactive: 0
CC(C)(O)c1cc2nc(-c3cnc(N)nc3)nc(N3CCOCC3)c2s1 (2.5 µM),active: 1,inactive: 0,inactive: 0,inactive: 0,inactive: 0,inactive: 0,inactive: 0,inactive: 0,inactive: 0,inactive: 0,inactive: 0,inactive: 0,inactive: 0,inactive: 0,inactive: 0,inactive: 0,inactive: 0,inactive: 0,inactive: 0,inactive: 0
O=C(Nc1nc2cccc(-c3ccc(CN4CCS(=O)(=O)CC4)cc3)n2n1)C1CC1 [Filgotinib] (2.5 µM),inactive: 0,inactive: 0,inactive: 0,inactive: 0,inactive: 0,inactive: 0,inactive: 0,inactive: 0,inactive: 0,inactive: 0,inactive: 0,inactive: 0,inactive: 0,inactive: 0,inactive: 0,inactive: 0,inactive: 0,inactive: 0,inactive: 0,inactive: 0
Cc1ccc(-n2c(-c3ccc(O)cc3O)n[nH]c2=O)cc1 (10 µM),inactive: 0,inactive: 0,inactive: 0,inactive: 0,inactive: 0,inactive: 0,inactive: 0,inactive: 0,inactive: 0,inactive: 0,inactive: 0,inactive: 0,inactive: 0,active: 1,inactive: 0,inactive: 0,inactive: 0,inactive: 0,inactive: 0,inactive: 0
CCn1c2ccccc2c2cc(Nc3ccnc(NCCCN4CCOCC4)n3)ccc21 (2.5 µM),inactive: 0,inactive: 0,inactive: 0,inactive: 0,inactive: 0,inactive: 0,inactive: 0,inactive: 0,inactive: 0,inactive: 0,inactive: 0,inactive: 0,inactive: 0,inactive: 0,inactive: 0,inactive: 0,inactive: 0,inactive: 0,inactive: 0,inactive: 0
N#Cc1cn([C@@H]2O[C@H](CO)[C@@H](O)[C@H]2O)c2nc[nH]c(=O)c12 [Jaspamycin] (10 µM),inactive: 0,inactive: 0,inactive: 0,inactive: 0,inactive: 0,inactive: 0,inactive: 0,inactive: 0,inactive: 0,inactive: 0,inactive: 0,inactive: 0,inactive: 0,inactive: 0,inactive: 0,inactive: 0,inactive: 0,inactive: 0,inactive: 0,inactive: 0
Cc1cc(=O)[nH]c(=S)[nH]1 [Methylthiouracil] (10 µM),inactive: 0,inactive: 0,inactive: 0,inactive: 0,inactive: 0,inactive: 0,inactive: 0,inactive: 0,inactive: 0,inactive: 0,inactive: 0,inactive: 0,inactive: 0,inactive: 0,inactive: 0,inactive: 0,inactive: 0,inactive: 0,inactive: 0,inactive: 0
CNC(=O)c1ccc(-c2cnc3ncc(Cc4ccc5ncccc5c4)n3n2)cc1F [Capmatinib] (10 µM),inactive: 0,inactive: 0,inactive: 0,inactive: 0,inactive: 0,inactive: 0,inactive: 0,inactive: 0,inactive: 0,inactive: 0,inactive: 0,inactive: 0,inactive: 0,inactive: 0,inactive: 0,inactive: 0,inactive: 0,inactive: 0,inactive: 0,inactive: 0

# A draw from above in order of formula weight, low to high.
Structure (SMILES),kinase-Nluc reporter destabilization hit call (ABL1),kinase-Nluc reporter destabilization hit call (AKT1),kinase-Nluc reporter destabilization hit call (ALK),kinase-Nluc reporter destabilization hit call (ARAF),kinase-Nluc reporter destabilization hit call (AURKA),kinase-Nluc reporter destabilization hit call (AURKB),kinase-Nluc reporter destabilization hit call (AURKC),kinase-Nluc reporter destabilization hit call (BLK),kinase-Nluc reporter destabilization hit call (BMX),kinase-Nluc reporter destabilization hit call (BRAF),kinase-Nluc reporter destabilization hit call (BRAF_V600E),kinase-Nluc reporter destabilization hit call (BTK),kinase-Nluc reporter destabilization hit call (CAMK2A),kinase-Nluc reporter destabilization hit call (CAMK2G),kinase-Nluc reporter destabilization hit call (CDK10),kinase-Nluc reporter destabilization hit call (CDK2),kinase-Nluc reporter destabilization hit call (CDK3),kinase-Nluc reporter destabilization hit call (CDK4),kinase-Nluc reporter destabilization hit call (CDK5),kinase-Nluc reporter destabilization hit call (CDK6)
Cc1cc(=O)[nH]c(=S)[nH]1 [Methylthiouracil] (10 µM),inactive: 0,inactive: 0,inactive: 0,inactive: 0,inactive: 0,inactive: 0,inactive: 0,inactive: 0,inactive: 0,inactive: 0,inactive: 0,inactive: 0,inactive: 0,inactive: 0,inactive: 0,inactive: 0,inactive: 0,inactive: 0,inactive: 0,inactive: 0
Cn1sc(=O)n(Cc2ccccc2)c1=O (10 µM),inactive: 0,inactive: 0,inactive: 0,inactive: 0,inactive: 0,inactive: 0,inactive: 0,inactive: 0,inactive: 0,inactive: 0,inactive: 0,inactive: 0,inactive: 0,inactive: 0,inactive: 0,inactive: 0,inactive: 0,inactive: 0,inactive: 0,inactive: 0
CCn1c2ccccc2c2cc(Nc3ccnc(NCCCN4CCOCC4)n3)ccc21 (2.5 µM),inactive: 0,inactive: 0,inactive: 0,inactive: 0,inactive: 0,inactive: 0,inactive: 0,inactive: 0,inactive: 0,inactive: 0,inactive: 0,inactive: 0,inactive: 0,inactive: 0,inactive: 0,inactive: 0,inactive: 0,inactive: 0,inactive: 0,inactive: 0

# From the supplement of paper PMC12823440, “Inhibitors supercharge kinase turnover through native proteolytic circuits” (Nature, 2025)
